What was measured:
Type in all cases: cell-based
[1] = test system: A549 lung carcinoma cells; experiment: MTT assay, antiproliferative activity, A549; conditions: Homo sapiens, A549, 48 h, read-out: Cytotoxicity IC50 A549
Experimental: (§1) The title compounds 4a–q were subjected to MTT assay to determine their cytotoxicity, and their in vitro antiproliferative activity was examined as well. The cancer cell growth inhibitory activity of the synthesized compound was tested against three human cancer cell lines, namely, breast cancer (MCF-7), colon cancer (HCT116) and lung cancer (A549), as well as non-tumorigenic human lung cell line (WI38) to estimate the selectivity for tumor cells. Staurosporine was used as a reference drug.
(§2) Anti-proliferative activity in compounds 4a–q were tested in three cancerous cell lines (MCF-7 breast cancer cells, A549 lung carcinoma, HCT human colon cancer cells) and in WI-38 human lung fibroblast cells. Cells were plated at a density of 1.2–1.8 × 10,000 cells/well in a volume of 100 µL complete growth medium and were incubated at 37 °C for 24 h. Cells were then treated with serially diluted tested compound and incubated at 37 °C for 48 h. Twenty microliters of 3-(4,5-dimethylthiazol-2-yl)-2,5-diphenyltetrazolium bromide (MTT) (2.5 mg/mL) dissolved in PBS were added to the cells and cells were further incubated for 4 h at 37 °C. […] The absorbance was detected at 540 nm using a Spectramax 250 microplate reader (Molecular device, San Jose, CA, USA), and viability (%) was calculated as [optical density (OD) of treated group/OD of control group] × 100.

[2] = test system: HCT116 colon cancer cells; experiment: MTT assay, antiproliferative activity, HCT116; conditions: Homo sapiens, HCT-116, 48 h, read-out: Cytotoxicity IC50 HCT116
Experimental: as §1, §2

[3] = MTT assay, toxicity on normal cells WI38; conditions: human
Experimental: as §1, §2

[4] = test system: MCF-7 breast cancer cells; experiment: MTT assay, antiproliferative activity, MCF-7; conditions: Homo sapiens, MCF7, 48 h, read-out: Cytotoxicity IC50 MCF7
Experimental: as §1, §2

Compound: CN[C@@H]1C[C@H]2O[C@@](C)([C@@H]1OC)n1c3ccccc3c3c4c(c5c6ccccc6n2c5c31)C(=O)NC4 [Staurosporine, reference compound]
- IC50 [1]: 8.42 ± 0.46 µM
- IC50 [2]: 7.02 ± 0.34 µM
- IC50 [3]: 28.5 ± 1.62 µM
- IC50 [4]: 11.1 ± 0.53 µM
